According to US20190100600A1:
No constants are given. Whether binding was seen depends on the method and setting. Some results given as binding are weak or reduced against the parent protein; the word gives no strength. Tags and fused reporters may be left off the sequences shown.

The chains behind the UniProt entries cited, without tags or fusion partners. Residues count along the entry.
UniProt O75581, residues 20-1370: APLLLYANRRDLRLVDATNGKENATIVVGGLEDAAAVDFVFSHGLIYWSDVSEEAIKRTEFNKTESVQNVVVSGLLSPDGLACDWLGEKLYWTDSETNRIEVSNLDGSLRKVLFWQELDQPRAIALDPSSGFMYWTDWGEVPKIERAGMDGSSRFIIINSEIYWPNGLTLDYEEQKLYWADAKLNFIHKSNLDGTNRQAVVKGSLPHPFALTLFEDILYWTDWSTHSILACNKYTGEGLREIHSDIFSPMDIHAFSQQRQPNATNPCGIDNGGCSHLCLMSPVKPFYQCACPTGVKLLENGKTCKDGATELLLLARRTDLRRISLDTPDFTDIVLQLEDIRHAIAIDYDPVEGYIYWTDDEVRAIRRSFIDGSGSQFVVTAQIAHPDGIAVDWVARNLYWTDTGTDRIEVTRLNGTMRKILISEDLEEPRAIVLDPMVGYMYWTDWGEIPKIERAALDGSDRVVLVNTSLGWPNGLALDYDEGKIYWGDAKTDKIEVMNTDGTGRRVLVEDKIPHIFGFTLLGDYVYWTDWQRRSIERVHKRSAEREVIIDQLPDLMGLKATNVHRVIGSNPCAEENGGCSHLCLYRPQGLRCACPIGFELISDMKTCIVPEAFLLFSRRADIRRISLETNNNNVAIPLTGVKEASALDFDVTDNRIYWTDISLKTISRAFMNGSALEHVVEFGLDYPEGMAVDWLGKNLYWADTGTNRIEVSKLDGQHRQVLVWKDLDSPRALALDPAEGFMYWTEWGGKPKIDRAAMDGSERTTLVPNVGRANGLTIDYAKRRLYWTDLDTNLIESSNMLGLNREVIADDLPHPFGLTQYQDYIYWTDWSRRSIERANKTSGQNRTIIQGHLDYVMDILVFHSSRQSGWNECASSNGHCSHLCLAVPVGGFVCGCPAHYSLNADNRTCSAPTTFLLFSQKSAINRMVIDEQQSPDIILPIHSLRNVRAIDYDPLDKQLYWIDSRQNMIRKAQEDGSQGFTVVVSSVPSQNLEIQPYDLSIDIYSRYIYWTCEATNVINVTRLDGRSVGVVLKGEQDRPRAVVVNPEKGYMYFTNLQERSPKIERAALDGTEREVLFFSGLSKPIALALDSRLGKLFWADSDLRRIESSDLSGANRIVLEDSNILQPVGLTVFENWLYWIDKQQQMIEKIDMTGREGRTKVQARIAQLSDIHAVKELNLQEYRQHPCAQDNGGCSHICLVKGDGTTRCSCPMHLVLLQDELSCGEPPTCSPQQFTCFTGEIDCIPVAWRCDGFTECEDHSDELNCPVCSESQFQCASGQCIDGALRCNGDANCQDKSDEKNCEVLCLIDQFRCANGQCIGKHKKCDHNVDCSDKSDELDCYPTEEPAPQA
UniProt Q9ULT6, residues 56-219: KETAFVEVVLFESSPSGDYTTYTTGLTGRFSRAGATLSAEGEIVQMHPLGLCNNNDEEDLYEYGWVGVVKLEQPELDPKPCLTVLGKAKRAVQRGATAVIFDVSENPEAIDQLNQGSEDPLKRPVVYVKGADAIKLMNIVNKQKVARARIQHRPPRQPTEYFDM

Assays:
RNF43-Fc [1] = molecular target: T1, RNF43-Fc (UniProt Q68DV7); test: ELISA: coated hRNF43-Fc, hLGR5-Fc preincubated with hRspo 3, bound hLGR5-Fc detected with anti-FLAG; ternary complex
T1 sequence (looked up): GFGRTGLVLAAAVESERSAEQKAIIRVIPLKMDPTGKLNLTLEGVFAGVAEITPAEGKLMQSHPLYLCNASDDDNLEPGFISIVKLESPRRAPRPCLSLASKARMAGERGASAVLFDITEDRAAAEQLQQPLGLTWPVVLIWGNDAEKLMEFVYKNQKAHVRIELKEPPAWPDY

RNF43-Fc [2] = molecular target: T1, RNF43-Fc; test: ELISA, RNF43-Fc coated, LGR5-Fc preincubated with R-spondin 1/2/3/4 or Norrin, detection with anti-FLAG mAb
RNF43-Fc [3] = molecular target: T1, RNF43-Fc; test: ELISA: coated hRNF43-Fc, hLGR5-Fc preincubated with hNorrin, bound hLGR5-Fc detected with anti-FLAG; ternary complex
LRP6-Fc = LRP6-Fc (UniProt O75581); test: ELISA, LRP6-Fc coated, LGR5-Fc preincubated with R-spondin 1/2/3/4 or Norrin, detection with anti-FLAG mAb
ZNRF3-Fc = ZNRF3-Fc (UniProt Q9ULT6); test: ELISA, ZNRF3-Fc coated, LGR5-Fc preincubated with R-spondin 1/2/3/4 or Norrin, detection with anti-FLAG mAb
RNF43-Fc [4] = molecular target: T1, RNF43-Fc; test: ELISA: coated hRNF43-Fc, hLGR5-Fc preincubated with hRspo 2, bound hLGR5-Fc detected with anti-FLAG; ternary complex
RNF43-Fc [5] = molecular target: T1, RNF43-Fc; test: ELISA: coated hRNF43-Fc, hLGR5-Fc preincubated with hRspo 1, bound hLGR5-Fc detected with anti-FLAG; ternary complex
RNF43-Fc [6] = molecular target: T1, RNF43-Fc; test: ELISA: coated hRNF43-Fc, hLGR5-Fc preincubated with hRspo 4, bound hLGR5-Fc detected with anti-FLAG; ternary complex

Measured: binding

B1: purified recombinant LGR5 ectodomain-IgG-Fc fusion (Fc fusion, not shown: a dimerising Fc or GST)
chain: GSSPRSGVLLRGCPTHCHCEPDGRMLLRVDCSDLGLSELPSNLSVFTSYLDLSMNNISQLLPNPLPSLRFLEELRLAGNALTYIPKGAFTGLYSLKVLMLQNNQLRHVPTEALQNLRSLQSLRLDANHISYVPPSCFSGLHSLRHLWLDDNALTEIPVQAFRSLSALQAMTLALNKIHHIPDYAFGNLSSLVVLHLHNNRIHSLGKKCFDGLHSLETLDLNYNNLDEFPTAIRTLSNLKELGFHSNNIRSIPEKAFVGNPSLITIHFYDNPIQFVGRSAFQHLPELRTLTLNGASQITEFPDLTGTANLESLTLTGAQISSLPQTVCNQLPNLQVLDLSYNLLEDLPSFSVCQKLQKIDLRHNEIYEIKVDTFQQLLSLRSLNLAWNKIAIIHPNAFSTLPSLIKLDLSSNLLSSFPITGLHGLTHLKLTGNHALQSLISSENFPELKVIEMPYAYQCCAFGVCENAYKISNQWNKGDNSSMDDLHKKDAGMFQAQDERDLEDFLLDFEEDLKALHSVQCSPSPGPFKPCEHLLDGWLIR
binds: all assays above
